PubChem BioAssay AID1259308, NCATS, 2017
Test: 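Genes whose loss raises luciferase production in HEK293 cells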 (primary screen). Cell system: human HEK293 embryonic kidney cells stably expressing firefly luciferase (HEK-CMV-Luc2-Hygro). Reagents: single siRNA against human genes, 0.8 pmol siRNA per well. Time to read-out: 72 h. Measured: 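Luciferase light (ONE-Glo) measured on one replicate plate set and viability (CellTiter-Glo) on the other, scaled to a negative control siRNA, with robust z-scores and luciferase per cell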. Scale: total luciferase, z-score: higher = more reporter protein produced. Hit rule: 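An siRNA counts as active if its total luciferase robust z-score exceeds 3; genes with two or more such siRNAs out of three were retested with fresh siRNAs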. Meaning of the calls: active = raised luciferase; inactive = no rise.
This is a random part of about 59,000 reagents. About 1,510 of all reagents (2.6%) were called active. 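Calls use total luciferase alone and ignore viability, so some active siRNAs may act by altering cell number.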 The numbers tell different reagents against one gene apart. Not all columns of the deposit are shown.

SCFD1 (sec1 family domain containing 1) #1 — total luciferase, z-score: -0.0437; Outcome: inactive
SCFD1 (sec1 family domain containing 1) #2 — total luciferase, z-score: 0.812; Outcome: inactive
SCFD1 (sec1 family domain containing 1) #3 — total luciferase, z-score: 0.255; Outcome: inactive
ATP5F1C (ATP synthase F1 subunit gamma) #1 — total luciferase, z-score: -0.273; Outcome: inactive
ATP5F1C (ATP synthase F1 subunit gamma) #2 — total luciferase, z-score: -0.398; Outcome: inactive
ATP5F1C (ATP synthase F1 subunit gamma) #3 — total luciferase, z-score: 0.907; Outcome: inactive
UNC13C (unc-13 homolog C) #1 — total luciferase, z-score: 0.724; Outcome: inactive
UNC13C (unc-13 homolog C) #2 — total luciferase, z-score: -0.55; Outcome: inactive
UNC13C (unc-13 homolog C) #3 — total luciferase, z-score: -1.49; Outcome: inactive
PKNOX2 (PBX/knotted 1 homeobox 2) #1 — total luciferase, z-score: -0.0905; Outcome: inactive
PKNOX2 (PBX/knotted 1 homeobox 2) #2 — total luciferase, z-score: 0.441; Outcome: inactive
PKNOX2 (PBX/knotted 1 homeobox 2) #3 — total luciferase, z-score: 0.21; Outcome: inactive
OR7A10 (olfactory receptor family 7 subfamily A member 10) #1 — total luciferase, z-score: 1.69; Outcome: inactive
OR7A10 (olfactory receptor family 7 subfamily A member 10) #2 — total luciferase, z-score: 0.184; Outcome: inactive
OR7A10 (olfactory receptor family 7 subfamily A member 10) #3 — total luciferase, z-score: 2.26; Outcome: inactive
GFM2 (GTP dependent ribosome recycling factor mitochondrial GFM2) #1 — total luciferase, z-score: 2.51; Outcome: inactive
GFM2 (GTP dependent ribosome recycling factor mitochondrial GFM2) #2 — total luciferase, z-score: -0.885; Outcome: inactive
GFM2 (GTP dependent ribosome recycling factor mitochondrial GFM2) #3 — total luciferase, z-score: -0.0895; Outcome: inactive
ADNP2 (ADNP homeobox 2) #1 — total luciferase, z-score: -0.629; Outcome: inactive
ADNP2 (ADNP homeobox 2) #2 — total luciferase, z-score: -0.336; Outcome: inactive
ADNP2 (ADNP homeobox 2) #3 — total luciferase, z-score: 0.334; Outcome: inactive

Records listed so far whose gene name starts with P or p:
PKNOX2 (PBX/knotted 1 homeobox 2) #1 — total luciferase, z-score: -0.0905; Outcome: inactive
PKNOX2 (PBX/knotted 1 homeobox 2) #2 — total luciferase, z-score: 0.441; Outcome: inactive
PKNOX2 (PBX/knotted 1 homeobox 2) #3 — total luciferase, z-score: 0.21; Outcome: inactive
